Measured values reported in paper PMC4905473.
Results are given in words; binding and its absence hold for the method and conditions named. In cells and extracts the contact can be indirect. Some entries that bind do so weakly or less than the wild type.

Protein sequences, listed by entry. Tags and fused reporters are not part of them.
UniProt P47811: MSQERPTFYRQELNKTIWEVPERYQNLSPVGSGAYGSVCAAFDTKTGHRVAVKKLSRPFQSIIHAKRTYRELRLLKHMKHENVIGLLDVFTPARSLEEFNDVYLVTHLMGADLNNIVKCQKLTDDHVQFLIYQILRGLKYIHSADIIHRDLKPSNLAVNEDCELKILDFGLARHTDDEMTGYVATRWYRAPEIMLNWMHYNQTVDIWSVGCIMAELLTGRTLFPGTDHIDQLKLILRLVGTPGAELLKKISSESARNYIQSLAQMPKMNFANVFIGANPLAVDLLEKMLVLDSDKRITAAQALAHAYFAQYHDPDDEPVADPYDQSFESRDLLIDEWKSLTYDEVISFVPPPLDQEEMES

Target: T1, mouse MKK3 (mouse (endogenous in liver)) (UniProt O09110)
T1 sequence: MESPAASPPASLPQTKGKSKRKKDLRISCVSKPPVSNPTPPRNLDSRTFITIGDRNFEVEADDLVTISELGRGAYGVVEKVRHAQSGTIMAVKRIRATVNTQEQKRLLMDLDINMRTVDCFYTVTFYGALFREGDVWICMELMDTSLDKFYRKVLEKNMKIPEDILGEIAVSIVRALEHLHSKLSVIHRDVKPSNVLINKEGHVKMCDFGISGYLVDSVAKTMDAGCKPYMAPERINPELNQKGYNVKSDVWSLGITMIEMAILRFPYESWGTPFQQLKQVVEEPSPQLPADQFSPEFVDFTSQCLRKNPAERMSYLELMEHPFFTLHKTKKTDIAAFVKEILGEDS
Assay: co-IP; IP with anti-MKK3 antibody (Epitomics #1728), protein A/G-Sepharose, Western/IP lysis buffer, WB with anti-p38; livers of paired WT-I and mSIRT1-KI mice

binding: binds
Substance: mouse p38 (p38α, MAPK14) (from UniProt P47811 1-360)
